Among the data in PMC12098889, “Structural insight into PIF6-mediated red light signal transduction of plant phytochrome B” (Cell Discovery, 2025) are binding values, retold here.

Chains of the proteins cited; added tags and fusions are not shown. Lines headed by an entry give the natural chain unless they say otherwise; changes in a name come on top. A line that says so, or that is headed by a name, gives the form on record, which may keep a tag or linker. Residues count along the entry.
PIF6αΔC fused to nLUC or cLUC (PIF6αΔC-nLUC and cLUC-PIF6αΔC) (Q8L5W7, residues 1-247): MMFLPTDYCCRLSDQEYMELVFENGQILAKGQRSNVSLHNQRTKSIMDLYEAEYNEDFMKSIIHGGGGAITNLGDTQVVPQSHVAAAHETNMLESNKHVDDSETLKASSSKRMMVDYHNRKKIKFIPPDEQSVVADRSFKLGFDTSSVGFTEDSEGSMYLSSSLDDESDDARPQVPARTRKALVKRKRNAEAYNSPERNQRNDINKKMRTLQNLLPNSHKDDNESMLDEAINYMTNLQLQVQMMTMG
PIF6N (1‒64) (Q8L5W7, residues 1-64): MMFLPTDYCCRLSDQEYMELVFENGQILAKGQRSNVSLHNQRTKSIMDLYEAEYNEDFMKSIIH

Results are given in words; binding and its absence hold for the method and conditions named. For part of these data: Binding seen in cells or lysates may run through a third protein. Some entries that bind do so weakly or less than the wild type.

The target in test [1] is PIF6αΔC fused to nLUC or cLUC (PIF6αΔC-nLUC and cLUC-PIF6αΔC) (Arabidopsis) (UniProt Q8L5W7). Briefly: split reporter; luciferase complementation imaging (LCI) in Nicotiana benthamiana leaves; PIF6αΔC-nLUC with cLUC-PIF6αΔC, with or without co-transfected phyB forms; far-red or red light for 5 min before imaging for the phyB combinations.
The target of test [2] is PIF6N (1‒64) (Arabidopsis) (UniProt Q8L5W7). Nature of the test: pull-down; StrepII-tagged PIF6N (1-64) and its mutants used to pull down Flag-tagged phyBN (Pfr) and its site-directed mutants; SDS-PAGE with Coomassie and zinc-induced fluorescence; both purified.
For test [3] the target is unchanged. Nature of the test: pull-down; StrepII-tagged PIF6N (1-64) used to pull down Flag-tagged phyBN^Y276H and its site-directed mutants; light condition not stated; both purified.

Consider “PIF6αΔC fused to nLUC or cLUC (PIF6αΔC-nLUC and cLUC-PIF6αΔC) (from UniProt Q8L5W7 1-247) (domain or fragment)”, for which, in test [1], the binding entry is listed as “binds”.
“phyB expressed in Nicotiana benthamiana (pPlink) (from UniProt P14713 1-1172) (receptor)”: the binding entry in test [1] is reported as “binds”.
In the case of “phyBN Q109A (from UniProt P14713 1-908) (domain or fragment)”, the binding result in test [2] was “binds weakly”.
“phyBN^Y276H Q109A (from UniProt P14713 1-908) (domain or fragment)”: the binding entry in test [3] is “binds weakly”.
As to “phyB^Y276H expressed in Nicotiana benthamiana (pPlink) (from UniProt P14713 1-1172) (receptor)”, the binding entry in test [1] is reported as “binds”.

B1: phyBN^Y276H (1‒908) (domain or fragment, Arabidopsis, UniProt P14713 1-908, looked up)
chain: MVSGVGGSGGGRGGGRGGEEEPSSSHTPNNRRGGEQAQSSGTKSLRPRSNTESMSKAIQQYTVDARLHAVFEQSGESGKSFDYSQSLKTTTYGSSVPEQQITAYLSRIQRGGYIQPFGCMIAVDESSFRIIGYSENAREMLGIMPQSVPTLEKPEILAMGTDVRSLFTSSSSILLERAFVAREITLLNPVWIHSKNTGKPFYAILHRIDVGVVIDLEPARTEDPALSIAGAVQSQKLAVRAISQLQALPGGDIKLLCDTVVESVRDLTGYDRVMVHKFHEDEHGEVVAESKRDDLEPYIGLHYPATDIPQASRFLFKQNRVRMIVDCNATPVLVVQDDRLTQSMCLVGSTLRAPHGCHSQYMANMGSIASLAMAVIINGNEDDGSNVASGRSSMRLWGLVVCHHTSSRCIPFPLRYACEFLMQAFGLQLNMELQLALQMSEKRVLRTQTLLCDMLLRDSPAGIVTQSPSIMDLVKCDGAAFLYHGKYYPLGVAPSEVQIKDVVEWLLANHADSTGLSTDSLGDAGYPGAAALGDAVCGMAVAYITKRDFLFWFRSHTAKEIKWGGAKHHPEDKDDGQRMHPRSSFQAFLEVVKSRSQPWETAEMDAIHSLQLILRDSFKESEAAMNSKVVDGVVQPCRDMAGEQGIDELGAVAREMVRLIETATVPIFAVDAGGCINGWNAKIAELTGLSVEEAMGKSLVSDLIYKENEATVNKLLSRALRGDEEKNVEVKLKTFSPELQGKAVFVVVNACSSKDYLNNIVGVCFVGQDVTSQKIVMDKFINIQGDYKAIVHSPNPLIPPIFAADENTCCLEWNMAMEKLTGWSRSEVIGKMIVGEVFGSCCMLKGPDALTKFMIVLHNAIGGQDTDKFPFPFFDRNGKFVQALLTANKRVSLEGKVIGAFCFLQIPS
modifications: PΦB chromophore covalently bound
notes: Arabidopsis phytochrome B, residues 1-908, with Y276H; also called HKRD-truncated phyBN^Y276H; truncated phyBN^Y276H (M1‒S908); source: E. coli BL21(DE3), co-expressed with HO1 and HY2, purified; not shown: 3× Flag, N-terminal, kept
Turning to B1, the binding entry in test [3] is given as “binds”.
